Data taken from PubChem BioAssay AID912, deposited by NCATS (2007).

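Uptake of anthrax lethal toxin into cultured cells, read by FRET (460/530 nm ratio) and reported from the 460 nm channel; the cell line is not named here.
Each compound was tested as a concentration series from about 0.0005 to 40 µM.
The number is the fitted AC50 of the 460 nm signal alone; lower values mean a more potent effect. A falling signal goes with compounds filed as inhibitors or cytotoxic, a rising one with activators or fluorescent compounds (inferred from the filed classes).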

Values are in nM.
Common to all entries: measured here: 460 nm channel.
Part of the compounds only, not a random draw; the main read-out is not listed here.
A potency from a partial, single-point or poor curve is only a rough figure.
The first word of each remark tells which way the curve ran; it can be opposite to the aim of the assay.

structure	AC50 (nM)	remark
CC(C)N1C(=O)c2ccc(C(=O)O)cc2C1=O	31622	falling, single point
Cc1n[nH]c(C)c1S(=O)(=O)N1CCCC(C(=O)NC2CCCCC2)C1 (centres undefined)	31622	rising, single point
CCOC(=O)C1CCN(c2c(NCCCN(CC)c3ccccc3)c(=O)c2=O)CC1	5012	rising, single point
CC1CN(S(=O)(=O)c2ccc(C(=O)Nc3sc4c(c3C(N)=O)CCN(C)C4)cc2)CC(C)O1 (centres undefined)	3162	rising, single point
COC(=O)C1=C(C)n2nnnc2NC1c1cc2ccccc2o1 (centres undefined)	25118	rising, single point
NS(=O)(=O)c1ccc(NC(=O)COC(=O)CCNC(=O)NC23CC4CC(CC(C4)C2)C3)cc1	31622	falling, single point
CCc1nc(N)c(C#N)c(-c2ccncc2)c1C	125.9	falling, full curve
CCCCC(=O)NC1(C(F)(F)F)C(=O)Nc2c1c(=O)[nH]c(=O)n2Cc1ccco1 (centres undefined)	25.12	falling, full curve, poor fit
C=CC(=O)OCC(CO)(COC(=O)C=C)COC(=O)C=C	3981	falling, full curve
COc1ccc(OCc2nn3c(Cn4cnc5ccccc54)nnc3s2)cc1	15848	rising, single point
CCCCCCN(CCCCCC)C(=O)Cc1c(-c2ccc(F)cc2)[nH]c2ccccc12	12589	falling, partial curve, poor fit
CCC(C)N(C(=O)COC(=O)Cc1n[nH]c(=O)c2ccccc12)C1CCS(=O)(=O)C1 (centres undefined)	3162	rising, single point
C=C(C)COc1ccc2oc(C)c(C(=O)OCCOC)c2c1	10000	falling, single point
CC1CCCN(CCC(=O)c2ccc(Br)cc2)C1 (centres undefined)	5012	falling, full curve
Cc1ccc(CSC2=Nc3ccccc3C3=NC(CCC(=O)NCc4ccco4)C(=O)N23)cc1 (centres undefined)	31622	rising, single point
CC1(C)CC(=O)C2=C(C1)OC(N)=C(C#N)C21CCC2(CC1)OCCO2	10000	rising, single point
CCc1ccccc1NC(=O)CSc1nnc([C@@H](NC(=O)OC(C)(C)C)C(C)CC)o1 (some centres undefined)	631	falling, partial curve
CCCCC(c1nnnn1CS(=O)(=O)c1ccc(C)cc1)N1CCN(c2ccccc2)CC1 (centres undefined)	12589	falling, partial curve
COCCCN1C(=O)C(=O)/C(=C(/O)c2ccc(OC(C)C)cc2)C1c1cccnc1 (centres undefined)	100	falling, full curve, poor fit
CCCCCCCCCCCCCCCC(=O)NCCO	31622	rising, partial curve
CCC(C)n1c(SC(C)C#N)nc2ccccc2c1=O (centres undefined)	5012	falling, single point
Cc1cc(-c2ccccc2)c(C#N)c(SCC(N)=O)n1	398.1	rising, full curve
CC(=O)OCC1OC(C#Cc2ccc(F)cc2F)C=CC1OC(C)=O (centres undefined)	5012	rising, single point
CCCCC(NC(C)=O)c1nc2ccccc2n1CCCC (centres undefined)	5012	rising, single point
Cc1cc(NC(=O)c2cc(-c3cccs3)nc3ccccc23)no1	10000	falling, partial curve
Cc1cc2c(c(=O)n1Cc1ccccn1)C(C(C)C)C(C#N)=C(N)O2 (centres undefined)	631	falling, single point
CCC(=O)Nc1ccc2c(c1)nc(CCN1CCN(C)CC1)n2C	7.943	falling, full curve
O=C1C2C3CCCC3=C3CCCC3C2C(=O)N1c1ccc(Cl)cc1 (centres undefined)	19952	falling, single point
Cn1c(=O)oc2cc(S(=O)(=O)NCc3ccncc3)ccc21	5012	falling, partial curve, poor fit
O=C1Nc2ccccc2C2(CCN(CCc3ccc(C(F)(F)F)cc3)CC2)O1	10000	falling, partial curve
CCOc1ccc(-c2cc(C(=O)NCCCN3CCN(CC)CC3)c3ccccc3n2)cc1	79.43	falling, full curve, poor fit
Cc1ccc(O)c(-c2cc(-c3ccccc3C)[nH]n2)c1	6310	falling, partial curve
COC(=O)Nc1sc2c(c1C(=O)NCc1ccco1)CCC2	3981	rising, full curve, poor fit
O=C1c2ccccc2C(Nc2ccc3c(c2)OCO3)N1Cc1ccc2c(c1)OCO2 (centres undefined)	10000	falling, partial curve
CCOC(=O)N1CCN(S(=O)(=O)c2ccc(F)c(C(=O)Nc3cc(C)cc(C)c3)c2)CC1	125.9	rising, full curve, poor fit
CC(=O)C1C(=O)CC(C)(O)C(C(C)=O)C1c1ccc(N(C)C)cc1 (centres undefined)	3.981	falling, full curve, poor fit
Cc1ccsc1-c1nc(CSCC(=O)N2CCN(c3ccccc3)CC2)c(C)o1	10000	falling, partial curve
COc1cc(OC)cc(C(=O)Nc2ccc(-c3nc4ccccc4o3)cc2)c1	2512	falling, full curve
COC(=O)[C@@]1(Cc2ccc(OC)cc2)[C@H]2c3cc(C(=O)N4CCCC4)n(CCc4ccccn4)c3C[C@H]2CN1C(=O)c1ccccc1	10000	rising, partial curve, poor fit
COc1ccc(-n2c(Cc3cccn3C)nnc2SCC(=O)Nc2cccc(Cl)c2)cc1	25118	falling, single point
Clc1ccc(OCc2nnc(SCc3nnc(-c4ccccc4)o3)o2)c(Cl)c1	31622	falling, single point
COc1ccc(-c2nc3cnc(N4CCNCC4)nc3n(CCC#N)c2=O)cc1	12589	rising, partial curve
O=C(Nc1ccc2c(c1)ncn2C1CCCCC1)c1ccco1	15848	falling, partial curve, poor fit
N#Cc1nc(-c2ccc(OCc3ccccc3)cc2)oc1NCCCn1ccnc1	25118	falling, single point
CC1(C)CC(=O)C2=C(C1)Nc1nc(SCCN3CCOCC3)[nH]c(=O)c1C2c1cccs1 (centres undefined)	7943	rising, partial curve
CCN1CCN(CCCNC(=O)c2cc3cc4ccc(OC)cc4nc3o2)CC1	31622	falling, single point

The last 4 entries again:

- O=C(Nc1ccc2c(c1)ncn2C1CCCCC1)c1ccco1 : AC50 15848 nM (falling, partial curve, poor fit)
- N#Cc1nc(-c2ccc(OCc3ccccc3)cc2)oc1NCCCn1ccnc1 : AC50 25118 nM (falling, single point)
- CC1(C)CC(=O)C2=C(C1)Nc1nc(SCCN3CCOCC3)[nH]c(=O)c1C2c1cccs1 (centres undefined) : AC50 7943 nM (rising, partial curve)
- CCN1CCN(CCCNC(=O)c2cc3cc4ccc(OC)cc4nc3o2)CC1 : AC50 31622 nM (falling, single point)